The record followed here is PubChem BioAssay AID248 (DTP/NCI, 2004).

The list is a part of this screen's results and no random one: it gathers tests that were run many times, whatever their T/C, doses with no T/C, and many T/C values between a quarter and a half above the control. Other doses and runs of a compound stand elsewhere. T/C is the treated group as % of the vehicle group. Some entries give survivors of the animals treated and no T/C: the source holds a T/C of zero for them, seemingly a mark for toxic or unscored doses. Some doses without a T/C left all or most animals alive at the check, yet need not have been tolerated: survival well below the control is almost never listed, so the zero probably covers shortened survival too. Survivors were counted at the toxicity check, usually on the fifth day, unless a day is given; later deaths do not show. Schedule codes are those of the source, taken here to give the interval after Q, in days (D) or hours (H), and the number of doses after X. Some doses were run more than once; their values stand side by side, smallest first. Some schedules carry Z or #; the key to these is not given. For survival time, the PubChem record calls one and a half times the control and up active, and a quarter to a half above the control has no call in these data; cut-offs in other NCI protocols can differ.

The subject of this assay is L1210 leukemia ip in BDF1 mice, survival T/C. Put plainly: NCI In Vivo Anticancer Drug Screen. Data for tumor model L1210 Leukemia (intraperitoneal) in B6D2F1 (BDF1) mice. The settings on record: T/C endpoint: mean survival time, higher T/C = longer survival.
Setting [1] is: dose: 400.0 mg/kg/injection, schedule: Q04DX002 (ip), vehicle: saline with Tween-80.
The mark [2] stands for this setting: dose: 100.0 mg/kg/injection, schedule: Q04DX003 (ip), vehicle: Klucel (hydroxypropylcellulose) (HPC).
Setting [3] is: dose: 200.0 mg/kg/injection, schedule: Q04DX003 (ip), vehicle: Klucel (hydroxypropylcellulose) (HPC).
[4] abbreviates: dose: 400.0 mg/kg/injection, schedule: Q04DX003 (ip), vehicle: Klucel (hydroxypropylcellulose) (HPC).
[5] abbreviates: dose: 200.0 mg/kg/injection, schedule: Q01DX009 (ip), vehicle: saline with Tween-80.
[6] abbreviates: dose: 400.0 mg/kg/injection, schedule: Q04DX003 (ip), vehicle: saline with Tween-80.
The mark [7] stands for this setting: dose: 400.0 mg/kg/injection, schedule: Q01DX009 (ip), vehicle: saline with Tween-80.
[8] abbreviates: dose: 400.0 mg/kg/injection, schedule: Q01DX001 (ip), vehicle: carboxymethylcellulose (CMC).
The mark [9] stands for this setting: dose: 400.0 mg/kg/injection, schedule: Q01DX001 (ip), vehicle: Klucel (hydroxypropylcellulose) (HPC).

Turning to `O=C(c1ccccc1)C1CNCCC1(O)c1ccccc1` (centres undefined), the survivor count (dose: 300.0 mg/kg/injection, schedule: Q04DX003 (ip), vehicle: acetone) was 5 of 6.

`CCC[CH2][Sn]1([CH2]CCC)[O]C(=O)C[S]1`: the survivor count reads like this: (dose: 5.0 mg/kg/injection, schedule: Q01DX009 (ip), vehicle: acetone) 0 of 6; (dose: 10.0 mg/kg/injection, schedule: Q01DX009 (ip), vehicle: acetone) 0 of 6; (dose: 12.0 mg/kg/injection, schedule: Q01DX Z (ip), vehicle: saline) 2 of 6; (dose: 12.5 mg/kg/injection, schedule: Q01DX001 (ip), vehicle: acetone) 0 of 6; (dose: 25.0 mg/kg/injection, schedule: Q01DX001 (ip), vehicle: acetone) 0 of 6; (dose: 25.0 mg/kg/injection, schedule: Q04DX002 (ip), vehicle: saline with Tween-80) 1 of 3. Further, the survivor count is recorded as 0 of 6 (dose: 28.0 mg/kg/injection, schedule: Q04DX003 (ip), vehicle: saline with Tween-80); 0 of 6 (dose: 44.0 mg/kg/injection, schedule: Q04DX003 (ip), vehicle: saline with Tween-80); 0 of 6 (dose: 50.0 mg/kg/injection, schedule: Q01DX001 (ip), vehicle: acetone); 0 of 6 (dose: 70.0 mg/kg/injection, schedule: Q04DX003 (ip), vehicle: saline with Tween-80); 0 of 6 (dose: 100.0 mg/kg/injection, schedule: Q01DX001 (ip), vehicle: acetone); 0 of 6 (dose: 200.0 mg/kg/injection, schedule: Q01DX001 (ip), vehicle: acetone). The survivor count (dose: 200.0 mg/kg/injection, schedule: Q04DX002 (ip), vehicle: saline with Tween-80) is given as 1 of 3; the survivor count (dose: 400.0 mg/kg/injection, schedule: Q01DX001 (ip), vehicle: acetone) was 0 of 6; the survivor count under setting [1] is recorded as 0 of 3.

Take `CC1CC[N+](C)(CC(=O)c2ccc(-c3ccc(C(=O)C[N+]4(C)CCC(C)CC4)cc3)cc2)CC1` (centres undefined): the survivor count was 0 of 6 (dose: 2.5 mg/kg/injection, schedule: Q04DX003 (ip), vehicle: Klucel (hydroxypropylcellulose) (HPC)); 0 of 6 (dose: 5.0 mg/kg/injection, schedule: Q04DX003 (ip), vehicle: Klucel (hydroxypropylcellulose) (HPC)); 0 of 6 (dose: 10.0 mg/kg/injection, schedule: Q04DX003 (ip), vehicle: Klucel (hydroxypropylcellulose) (HPC)); 0 of 6 (dose: 20.0 mg/kg/injection, schedule: Q04DX003 (ip), vehicle: Klucel (hydroxypropylcellulose) (HPC)); 0 of 6 (dose: 40.0 mg/kg/injection, schedule: Q04DX003 (ip), vehicle: Klucel (hydroxypropylcellulose) (HPC)); 0 of 6 under setting [2]. Besides, the survivor count under setting [3] is 0 of 6 and the survivor count under setting [4] is 0 of 6.

Take `BrCc1ccc2ccccc2c1Br`: the survivor count under setting [2] was 6 of 6, the survivor count under setting [3] is given as 1 of 6 and the survivor count under setting [4] was 0 of 6.

Consider `CCOC(=O)OC(=O)CNC(=O)CN1C(=O)c2ccccc2C1=O`, for which the survivor count (dose: 50.0 mg/kg/injection, schedule: Q01DX001 (ip), vehicle: saline) was 4 of 4.

For the compound `CNCCOc1ccccc1`, the survivor count under setting [5] is 3 of 6 and the survivor count under setting [6] was 0 of 6.

Take `NC(=S)N/N=C/c1cnccn1`: the T/C (dose: 100.0 mg/kg/injection, schedule: Q01DX009 (ip), vehicle: saline with Tween-80) is 143 % of control. In addition, the survivor count under setting [7] is on record as 1 of 6.

In the case of `CCCCCCCCCCCCCCCC(=O)Nc1ccc(Cl)c(Cl)c1`, the survivor count under setting [8] was 6 of 6.

`C1=NCCc2cc3[nH]c4ccccc4c3cc21`: the survivor count reads like this: under setting [3], 1 of 6; under setting [9], 0 of 6.

For the compound `O=S(=O)(O)c1ccccc1.O=S(=O)(O)c1ccccc1.[NH-]C1CCCCC1[NH-].[Pt+2]`, the T/C (dose: 1.0 mg/kg/injection, schedule: Q04DX003 (ip), vehicle: dextrose) is 129 % of control.

Consider `NNc1cc(NN)c2[nH]cnc2n1`, for which the survivor count by setting is: (dose: 200.0 mg/kg/injection, schedule: Q01DX001 (ip), vehicle: Klucel (hydroxypropylcellulose) (HPC)) 3 of 6; under setting [9], 3 of 6.

In the case of `S=C(N/N=C\c1ccc2c(c1)OCO2)Nc1ccc2cn[nH]c2c1`, the survivor count under setting [8] was 1 of 4.

For the compound `O=[N+]([O-])c1ccc(OCCC[P+](c2ccccc2)(c2ccccc2)c2ccccc2)c(Cl)c1`, the survivor count is 5 of 6 (dose: 18.0 mg/kg/injection, schedule: Q01DX009 (ip), vehicle: saline); 3 of 6 (dose: 25.0 mg/kg/injection, schedule: Q04DX003 (ip), vehicle: saline); 3 of 6 (dose: 28.0 mg/kg/injection, schedule: Q01DX009 (ip), vehicle: saline); 0 of 6 (dose: 40.0 mg/kg/injection, schedule: Q01DX009 (ip), vehicle: saline); 0 of 6 (dose: 50.0 mg/kg/injection, schedule: Q04DX003 (ip), vehicle: saline); 1 of 6 and 2 of 6 (dose: 100.0 mg/kg/injection, schedule: Q04DX003 (ip), vehicle: saline). The survivor count runs as follows: (dose: 200.0 mg/kg/injection, schedule: Q04DX003 (ip), vehicle: saline) 4 of 6; (dose: 400.0 mg/kg/injection, schedule: Q04DX003 (ip), vehicle: saline) 0 of 6.

Consider `CN1CCN(CCN2CCN(CCCN3c4ccccc4Sc4ccc(Cl)cc43)CC2)C1=O`, for which the survivor count runs as follows: (dose: 200.0 mg/kg/injection, schedule: Q01DX001 (ip), vehicle: carboxymethylcellulose (CMC)) 1 of 6; under setting [8], 0 of 6.

For the compound `CCOC(=O)N/N=C(/C)c1ccc(C)cc1`, the survivor count under setting [1] was 0 of 3 and 2 of 6.

As to `C[N+]1(C)CCOC(O)(c2ccc(-c3ccccc3)cc2)C1` (centres undefined), the survivor count reads like this: (dose: 25.0 mg/kg/injection, schedule: Q04DX002 (ip), vehicle: saline) 0 of 3; (dose: 50.0 mg/kg/injection, schedule: Q04DX002 (ip), vehicle: saline) 0 of 3; (dose: 100.0 mg/kg/injection, schedule: Q04DX002 (ip), vehicle: saline) 0 of 3.

For the compound `NC(=S)N/N=C\C(=N/NC(N)=S)C(O)CO` (centres undefined), where the note is “dose: 300.0 mg/kg/injection, schedule: Q01DX001 (ip), vehicle: saline”, the survivor count is listed as 2 of 6.

For `CC(C)=CN1CCCCC1`, the survivor count reads like this: under setting [5], 2 of 6; under setting [6], 0 of 6.

On to `CCN(C(=O)C(F)(F)F)C(C)(C)C(SSSC(c1ccc(Cl)cc1)C(C)(C)N(CC)C(=O)C(F)(F)F)c1ccc(Cl)cc1` (centres undefined), for which the survivor count reads like this: (dose: 200.0 mg/kg/injection, schedule: Q01DX009 (ip), vehicle: other) 0 of 6; (dose: 400.0 mg/kg/injection, schedule: Q01DX009 (ip), vehicle: other) 0 of 6.

On to `COc1cc(-c2nc3ccccc3c(=O)o2)cc(OC)c1OC`, for which, under setting [7], the survivor count is 6 of 6.
